PMC10940162
These are yes or no findings as the source states them, for the method shown. Some entries that bind do so weakly or less than the wild type.

Target: GFP–EB3 (UniProt Q9UPY8)
Assay: in vitro reconstitution with TIRF microscopy; microtubules grown from GMPCPP-stabilized seeds; 25 nM mCherry–CDK5RAP2, 20 nM GFP–EB3, 15 µM tubulin, 50 mM KCl, MRB80, 30 °C; both purified

**Q.** With “mCherry–CDK5RAP2 (from UniProt Q96SN8 1-1893)” as the substance, how does the binding read?
**A.** binds
